Our source for the binding values is paper PMC7269909.

Results are given in words; binding and its absence hold for the method and conditions named. In cells and extracts the contact can be indirect. For part of these data: Sequences can lack the tags named with a protein.

The target in assay [1] is GFP-tagged DEPTOR with deletion of the PDZ domain. As to the kind of experiment: co-IP; transfected HEK293 or U251 cells lysed in IP buffer (25 mM Tris pH 7.5, 150 mM NaCl, 1% Triton X-100, 1 mM EDTA); antibody at 4 °C overnight, Protein A/G magnetic beads 2 h at 4 °C, four washes; western blot.
Assay [2] addresses GST-fused DEP domain of DEPTOR. As to the kind of experiment: pull-down; purified GST fusion proteins of DEPTOR on glutathione-Sepharose 4B beads incubated 4 h with lysate of HEK293 cells transfected with FLAG-tagged LRRC4, IP buffer, four washes; western blot; only the target purified.
For the next assay, the target named is GST-fused DEPTOR ΔPDZ. The description is as above.

B1: LRRC4 (pCDNA3.1-LRRC4) (protein, UniProt Q9HBW1 39-653)
chain: ASAGPQNCPSVCSCSNQFSKVVCTRRGLSEVPQGIPSNTRYLNLMENNIQMIQADTFRHLHHLEVLQLGRNSIRQIEVGAFNGLASLNTLELFDNWLTVIPSGAFEYLSKLRELWLRNNPIESIPSYAFNRVPSLMRLDLGELKKLEYISEGAFEGLFNLKYLNLGMCNIKDMPNLTPLVGLEELEMSGNHFPEIRPGSFHGLSSLKKLWVMNSQVSLIERNAFDGLASLVELNLAHNNLSSLPHDLFTPLRYLVELHLHHNPWNCDCDILWLAWWLREYIPTNSTCCGRCHAPMHMRGRYLVEVDQASFQCSAPFIMDAPRDLNISEGRMAELKCRTPPMSSVKWLLPNGTVLSHASRHPRISVLNDGTLNFSHVLLSDTGVYTCMVTNVAGNSNASAYLNVSTAELNTSNYSFFTTVTVETTEISPEDTTRKYKPVPTTSTGYQPAYTTSTTVLIQTTRVPKQVAVPATDTTDKMQTSLDEVMKTTKIIIGCFVAVTLLAAAMLIVFYKLRKRHQQRSTVTAARTVEIIQVDEDIPAATSAAATAAPSGVSGEGAVVLPTIHDHINYNTYKPAHGAHWTENSLGNSLHPTVTTISEPYIIQTHTKDKVQETQI
For B1, in assay [1], the binding entry was “no binding”.

B2: FLAG-tagged LRRC4 (protein, UniProt Q9HBW1 39-653)
chain: ASAGPQNCPSVCSCSNQFSKVVCTRRGLSEVPQGIPSNTRYLNLMENNIQMIQADTFRHLHHLEVLQLGRNSIRQIEVGAFNGLASLNTLELFDNWLTVIPSGAFEYLSKLRELWLRNNPIESIPSYAFNRVPSLMRLDLGELKKLEYISEGAFEGLFNLKYLNLGMCNIKDMPNLTPLVGLEELEMSGNHFPEIRPGSFHGLSSLKKLWVMNSQVSLIERNAFDGLASLVELNLAHNNLSSLPHDLFTPLRYLVELHLHHNPWNCDCDILWLAWWLREYIPTNSTCCGRCHAPMHMRGRYLVEVDQASFQCSAPFIMDAPRDLNISEGRMAELKCRTPPMSSVKWLLPNGTVLSHASRHPRISVLNDGTLNFSHVLLSDTGVYTCMVTNVAGNSNASAYLNVSTAELNTSNYSFFTTVTVETTEISPEDTTRKYKPVPTTSTGYQPAYTTSTTVLIQTTRVPKQVAVPATDTTDKMQTSLDEVMKTTKIIIGCFVAVTLLAAAMLIVFYKLRKRHQQRSTVTAARTVEIIQVDEDIPAATSAAATAAPSGVSGEGAVVLPTIHDHINYNTYKPAHGAHWTENSLGNSLHPTVTTISEPYIIQTHTKDKVQETQI
For the molecule B2, the binding result (in assay [2]; with GST-fused DEPTOR ΔPDZ) was “no binding” in each case.
